Test results reported in the supplement of paper PMC5407854, “Inhibitor of ppGalNAc-T3-mediated O-glycosylation blocks cancer cell invasiveness and lowers FGF23 levels” (eLife, 2017).
Some of the results follow. Most entries show no effect beyond the scatter of the controls.

Key:
ppGalNAc-T3 sensor = assay: T3 sensor activation Q score (MG/GFP ratio z-score vs DMSO controls) (SD units); higher = more sensor activation (inhibition of ppGalNAc-T3 glycosylation); details: HEK293 sensor cells; 10 µM; 6 h
Protocol: (§1)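 Cells were treated with compound at 10 uM for 6 h, then MG/GFP ratio was read by flow cytometry (10,000 cells per well, duplicate wells). Q = (R - R_neg)/SD_neg relative to DMSO vehicle controls; the signal rises when the glycosyltransferase is inhibited.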

ppGalNAc-T2 sensor = assay: T2 sensor activation Q score (MG/GFP ratio z-score vs DMSO controls) (SD units); higher = more sensor activation (inhibition of ppGalNAc-T2 glycosylation); details: HEK293 sensor cells; 10 µM; 6 h
Protocol: as §1

| SMILES | T3 sensor activation Q score (ppGalNAc-T3 sensor) | T2 sensor activation Q score (ppGalNAc-T2 sensor) |
| --- | --- | --- |
| CN1CCN(Cc2ccc([N+](=O)[O-])o2)CC1 | 0.45 | 0.455 |
| CCN1CCN(Cc2cccc(OC)c2OC)CC1 | 0.665 | 0.255 |
| CN1CCN(c2ccc(Cl)cc2[N+](=O)[O-])CC1 | 0.28 | 1.58 |
| Cc1ccc(CN2CCN(c3ccc(F)cc3)CC2)cc1 | -0.165 | -0.29 |
| Fc1ccc(N2CCN(Cc3ccccc3)CC2)cc1 | -0.205 | -0.98 |
| COc1cccc(CN2CCN(c3ccc(F)cc3)CC2)c1OC | 0.345 | 1.19 |
| c1ccc(N2CCN(Cc3cccs3)CC2)cc1 | -0.09 | -0.535 |
| CCc1ccc(CN2CCN(C)CC2)cc1 | 0.275 | -0.81 |
| Cc1cccc(N2CCN(Cc3ccc(F)cc3)CC2)c1C | -0.275 | -0.91 |
| CN(C)C=NC(=O)CN1CCCC1=O | 0.39 | -0.255 |
| COc1ccc(CN2CCN(C)CC2)cc1OC | 0.55 | 0.46 |
| Fc1cccc(CN2CCN(c3cccc(Cl)c3)CC2)c1 | 0.2 | 0.235 |
| COc1ccc(CN2CCN(c3ccccc3C)CC2)cc1 | 0.425 | -0.365 |
| Cc1ccc(CN2CCN(C)CC2)c(C)c1 | 0.475 | -0.15 |
| COc1ccc(CN2CCN(c3ccccc3F)CC2)cc1 | 0.225 | -0.94 |
| CCOc1cc(CN2CCN(CC)CC2)ccc1O | 0.57 | -0.11 |
| Fc1ccc(F)c(CN2CCN(c3ccccc3F)CC2)c1 | 0.235 | 0.735 |
| CN1CCN(Cc2c(F)cccc2F)CC1 | 0.06 | -0.485 |
| COc1ccccc1CN1CCN(c2cccc(C)c2C)CC1 | 0.27 | -0.15 |
| COc1ccccc1N1CCN(Cc2ccc(F)cc2)CC1 | -0.215 | -0.37 |

Not a retest: entries from further up.

| SMILES | T3 sensor activation Q score (ppGalNAc-T3 sensor) | T2 sensor activation Q score (ppGalNAc-T2 sensor) |
| --- | --- | --- |
| Fc1ccc(F)c(CN2CCN(c3ccccc3F)CC2)c1 | 0.235 | 0.735 |
| CN1CCN(Cc2c(F)cccc2F)CC1 | 0.06 | -0.485 |
